The values that follow come from PubChem BioAssay AID2685 (National Center for Advancing Translational Sciences (NCATS), 2010).

Some of the results follow. These are further read-outs of the screen, such as a control signal, another cell line or another target. No call is given for them. Compounds called inactive in the main read-out are mostly missing here. Potencies come from curve fits of mixed quality, noted in brackets.

The nature of the assay: qHTS Assay for Lipid Storage Modulators in Drosophila S3 Cells.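 As to cell number change: cells counted by Cell Tracker Red CMTPX staining in the red channel.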 As to conditions: BODIPY lipid droplet fluorescence, 18-24 h; for cell number change: measured here: cell count max response, cells fed with added oleic acid. The method in brief: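 Drosophila S3 cells got compounds at several concentrations plus oleic acid (400 uM solution). Laser-scanning cytometry with 488 nm excitation read lipid droplets at 500-530 nm and cells at 575-640 nm. Percent activity was relative to 20 uM Triacsin C.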

Where [1] appears, read: measured here: lipid fluorescence (Fed channel) AC50, cells fed with added oleic acid.
[2] abbreviates: measured here: cell number channel AC50, cells fed with added oleic acid.

For `CCc1ccc(Nc2n[n+](C)c(-c3ccncc3)s2)cc1`, the cell number change came out at 14.4%.

As to `COc1ccc(CCN(CC(=O)NCc2ccc(F)cc2)C(=O)c2snc(C(N)=O)c2N)cc1OC`, the cell number change came to 8.26%. Besides, under setting [1], the half-maximal activity concentration (AC50) was 6.51 µM [rising, single point]. For the compound `Cc1ccc(NS(=O)(=O)c2cc(-c3n[nH]c(=O)c4ccccc34)ccc2C)cc1`, the cell number change was -41%. Moreover, the AC50 under setting [2] was 29.1 µM [falling, single point]. In addition, under setting [1], the AC50 is 0.651 µM [rising, full curve]. For the compound `CCCCN(CC)S(=O)(=O)c1ccc(C(=O)Nc2nnc(COC)o2)cc1`, the cell number change is -6.41%. `COc1cc(C(=O)NC(C)c2cccc3ccccc23)cc(OC)c1OC` (stereo not drawn): the cell number change amounted to 1.84%. For the same compound, the AC50 under setting [1] was 16.4 µM [falling, single point]. Turning to `N#C/C(=C\c1ccc(O)c(Br)c1)C(=O)N1CCCCC1`, the cell number change was -13%. The AC50 under setting [1] is 6.51 µM [falling, single point].

Take `CN(C(=O)COC(=O)c1cc2c(s1)CCCCC2)c1ccccc1`: the cell number change came to 13.9%.

Turning to `CC1(C)CC(N2CCCC2)=CC(=[N+]2CCCCC2)C1`, the cell number change was -38.1%. In addition, under setting [2], the concentration at half-maximal activity (AC50) is 1.84 µM [falling, partial curve].

Turning to `CC(OC(=O)CCC(=O)c1ccc(F)cc1)C(=O)NC1CCCCC1C` (stereo not drawn), the cell number change is -23.8%. Also, the concentration at half-maximal activity (AC50) under setting [1] was 0.731 µM [falling, full curve, poor fit]. In the case of `CCNc1nc2c(c(=O)[nH]c(=O)n2C)n1CCCc1ccccc1`, the cell number change amounted to 1.46%. Further, under setting [1], the AC50 was 3.26 µM [rising, partial curve]. Turning to `O=C(c1cc2ccccc2o1)N1CCOCC1`, the AC50 under setting [1] was 29.1 µM [falling, single point]. As for `CC1=CC(C)(C)n2c(O)c(N=N)c3c(C)c(C)cc1c32`, the cell number change is -25.3%. Moreover, the AC50 under setting [1] was 4.61 µM [falling, full curve].

With `O=C(NCCc1c[nH]c2ccccc12)/C(=C\c1cccnc1)NC(=O)c1ccccc1F`, the AC50 under setting [1] was 6.51 µM [falling, single point]. For `Cc1noc(NS(=O)(=O)c2ccc(NC(=O)CS(=O)(=O)c3ccccc3)cc2)c1C`, the cell number change is -22.7%. Under setting [1], the AC50 is 13 µM [falling, partial curve]. Regarding `CCOC(=O)C1(Cc2cccc(F)c2)CCN(C(=O)c2ccoc2C)CC1`, the cell number change came to 11.1%. Also, the AC50 under setting [1] was 0.58 µM [rising, full curve, poor fit].

On to `CC(NC(=O)Cc1ccccc1)C(=O)O` (stereo not drawn), for which the cell number change worked out at 3.16%. Moreover, the AC50 under setting [1] was 0.00517 µM [rising, full curve, poor fit].

Consider `O=[N+]([O-])c1ccc(Oc2ccc(S(=O)(=O)Nc3ccccc3)cc2)cc1`, for which the cell number change was -2.54%. Also, the AC50 under setting [1] was 16.4 µM [falling, single point]. For `CN=C1SC(CC(=O)Nc2c(C)cccc2C)C(=O)N1/N=C/c1cccs1` (stereo not drawn), the cell number change was -16.7%. For the same compound, the AC50 under setting [2] was 0.92 µM [rising, full curve]. As to `CCCCCC(=O)Nc1ccc2oc(-c3cncc(Br)c3)nc2c1`, the cell number change came to 35.2%. The AC50 under setting [2] is 0.13 µM [rising, partial curve]. Also, the AC50 under setting [1] is 0.82 µM [rising, partial curve]. In the case of `O=C(NCCCn1ccnc1)C(=O)NCC1OCCCN1S(=O)(=O)c1ccc(F)cc1` (stereo not drawn), the cell number change is -25.9%. The AC50 under setting [2] was 0.0206 µM [falling, full curve, poor fit]. As to `O=C(NCCN1CCN(C(=O)c2c(F)cccc2F)CC1)C(=O)Nc1ccc(Cl)cc1`, the cell number change was -12.7%.

Take `COc1ccccc1N(C(=O)c1snc(C(N)=O)c1N)C(C(=O)NCc1ccccc1)c1ccc(C)o1` (stereo not drawn): the cell number change was found to be 0.806%. The AC50 under setting [1] is 4.11 µM [falling, single point]. Take `CCc1noc(C)c1C(=O)N(C)CC(=O)Nc1ccc(Cl)c(Cl)c1`: the AC50 under setting [1] was 2.31 µM [rising, single point].

On to `CC1Cc2ccccc2N1C(=S)NC(=O)C1(C)CC1(Cl)Cl` (stereo not drawn), for which the cell number change is -7.06%. Besides, the AC50 under setting [2] is 0.13 µM [falling, full curve, poor fit]. Further, the AC50 under setting [1] was 0.13 µM [falling, full curve, poor fit]. As to `CCN(CC)S(=O)(=O)c1ccc2c(c1)c(=O)c(C(=O)NCCOC)cn2C`, the cell number change stood at 48.3%. Also, the AC50 under setting [2] is 6.51 µM [rising, full curve]. For the same compound, the AC50 under setting [1] was 6.51 µM [rising, full curve]. Regarding `COC(=O)c1cc(N2C(=O)C3C(C2=O)C2(C)C=CC3(C)O2)ccc1Cl` (stereo not drawn), the cell number change is -50.5%. Also, the AC50 under setting [1] is 20.6 µM [falling, partial curve]. For the compound `O=C(COc1ccc(F)cc1)Nc1nnc(C2CCCCC2)s1`, the cell number change was determined as 14%. Further, under setting [1], the AC50 was 20.6 µM [falling, single point]. As for `CCOc1cc(NC(=O)C2CC2)c(OCC)cc1NC(=O)c1cc(OC)c(OC)c(OC)c1`, the cell number change was 18.8%. For `C/C(=N\NC(=O)c1cccc(N/N=C(\C)c2cc(O)ccc2O)c1)c1cc(O)ccc1O`, the cell number change came out at 11.1%. Further, the AC50 under setting [2] was 0.731 µM [falling, full curve]. Moreover, under setting [1], the AC50 is 1.03 µM [falling, full curve]. As for `CCCCCC(N)=O`, the cell number change is -37.8%. The AC50 under setting [2] was 29.1 µM [falling, partial curve, poor fit]. The AC50 under setting [1] was 29.1 µM [falling, partial curve, poor fit]. For the compound `CCCc1nc(SCC(=O)NC2CCCC2)c2ccccc2n1`, the cell number change was determined as 7.39%.

For the compound `CC(=O)N1CCN(c2ccc([N+](=O)[O-])cc2C#N)CC1`, the cell number change is -9.16%.

In the case of `O=C(NCC1CCCO1)c1cccs1` (stereo not drawn), the cell number change was determined as 9.17%. In the case of `CCCN1CCN(C(c2cc3cc(OCC)ccc3[nH]c2=O)c2nnnn2C2CCCCC2)CC1` (stereo not drawn), the cell number change is -59.6%. The AC50 under setting [2] was 29.1 µM [falling, single point]. Moreover, the AC50 under setting [1] was 3.26 µM [falling, full curve, poor fit]. For `O=C(c1ccc(S(=O)(=O)NCC2CCCO2)cc1)N1CCc2ccccc21` (stereo not drawn), the cell number change is -32.7%. Under setting [2], the AC50 is 14.6 µM [falling, partial curve]. Moreover, the AC50 under setting [1] is 6.51 µM [rising, single point]. For the compound `Nc1c(C(=O)NCc2ccc3c(c2)OCO3)c2nc3ccccc3nc2n1CCCN1CCOCC1`, the cell number change is -17.2%. The AC50 under setting [1] was 18.4 µM [falling, single point]. Turning to `O=C(O)C1CCN(c2ccc(Cl)nn2)CC1`, the cell number change is -49.3%. Further, the AC50 under setting [2] is 29.1 µM [falling, single point]. Turning to `COCC(C)N=C1SCCN1Cc1ccccc1` (stereo not drawn), the cell number change was -2.1%.

In the case of `CCN(CC)CCCNC(=O)c1cc(-c2ccc(O)cc2)on1`, the cell number change was 17.3%. As for `O=C(NCCc1ccc(F)cc1)c1n[nH]c2ccccc12`, the cell number change stood at 26.4%. The concentration at half-maximal activity (AC50) under setting [2] is 4.61 µM [rising, full curve, poor fit]. As for `CCOC(=O)c1c(/N=C/C2C(=O)CC(C)(C)CC2=O)sc(C)c1C`, the cell number change was 1.61%. Under setting [1], the AC50 is 2.59 µM [rising, full curve, poor fit]. Consider `C=C(C)CSc1nc(N)c(C#N)c(-c2ccc(C)cc2)c1C#N`, for which the cell number change was 69.3%. In addition, under setting [2], the AC50 was 25.9 µM [rising, single point]. Consider `COC(=O)c1c(NC(=O)CSc2nnc(CNc3ccc(Cl)cc3)o2)sc(C)c1C`, for which the cell number change was determined as 26%. Also, the AC50 under setting [2] was 1.03 µM [rising, full curve, poor fit]. Also, under setting [1], the AC50 was 3.26 µM [rising, partial curve].

On to `Cc1ccccc1NC(=O)n1ncc2cc(Cl)ccc21`, for which the cell number change turned out to be 37.8%.

On to `C/C=C/c1ccc(OCCOc2cc(C=O)ccc2OC)c(OC)c1`, for which the cell number change was -4.45%. Also, the AC50 under setting [1] is 0.366 µM [rising, full curve, poor fit].

Regarding `O=C(NCc1ccccn1)c1cccc([N+](=O)[O-])c1`, the cell number change was 13%. For the same compound, the AC50 under setting [1] is 1.46 µM [rising, full curve].

For the compound `C=CCC(=O)OCC(=O)Nc1ccc(Oc2ccccc2)cc1`, the cell number change came out at 17.9%. Moreover, under setting [1], the AC50 was 11.6 µM [rising, single point].

Take `CC(Cc1ccccc1)NC(=O)CC(c1ccccc1)c1ccccc1O` (stereo not drawn): the cell number change is -30.6%. Further, the AC50 under setting [2] was 0.517 µM [falling, full curve]. Moreover, under setting [1], the AC50 was 6.51 µM [falling, single point].

Consider `O=C(CCN1N=C(c2ccccc2)CCC1=O)NCC1CCCO1` (stereo not drawn), for which the cell number change is -24.3%. Under setting [1], the AC50 is 9.2 µM [rising, partial curve]. Turning to `Fc1ccccc1-c1n[nH]c(=S)n1Cc1ccccc1`, the cell number change was 10.5%. Consider `CCCCC(=O)Nc1ccc(C(=O)Nc2nnc(COC)s2)cc1`, for which the cell number change came out at 39.5%. Moreover, under setting [2], the AC50 was 29.1 µM [rising, single point]. As to `C/C(=N/OC(=O)C1CC12CCC2)c1ccc(Br)cc1` (stereo not drawn), the concentration at half-maximal activity (AC50) under setting [2] was 1.64 µM [rising, partial curve, poor fit]. With `Cc1ccc(/C=C2\SC(=S)N(CCCC(=O)Nc3cccc(C(=O)O)c3)C2=O)cc1`, the cell number change was found to be 11.9%. Besides, under setting [1], the AC50 was 18.4 µM [rising, single point]. With `Cc1cccc(-c2cc3nc(C)c(C)c(NCCCn4ccnc4)n3n2)c1`, the cell number change is -4.38%. On to `COc1cc(OC)c(C2=NOC(C(=O)Nc3c(C)n(C)n(-c4ccccc4)c3=O)C2)cc1Cl` (stereo not drawn), for which the cell number change was 32.7%. For the same compound, the concentration at half-maximal activity (AC50) under setting [2] was 1.03 µM [rising, partial curve, poor fit]. The AC50 under setting [1] was 3.26 µM [rising, partial curve]. For the compound `CC1CCC2(CC1)NC(=O)c1ccccc1O2` (stereo not drawn), the cell number change stood at 2.08%.

For `CC(C)C(=O)Nc1ccc(C(=O)NNC(=S)NC(=O)c2cccs2)cc1`, the cell number change is -41.5%. Also, the half-maximal activity concentration (AC50) under setting [2] is 0.164 µM [falling, full curve, poor fit]. Moreover, under setting [1], the AC50 was 0.231 µM [falling, full curve]. With `CC(=O)c1cccc(NS(=O)(=O)c2ccc(N/C=C\C(=O)c3ccc(C)cc3)cc2)c1`, the cell number change is -32.7%. In addition, the AC50 under setting [2] was 2.31 µM [falling, full curve]. Also, the AC50 under setting [1] is 4.61 µM [falling, full curve].

Take `COC(=O)C1CCCCN1C(=O)c1cccc(OC2CCN(C(=O)C3CC3)CC2)c1` (stereo not drawn): the cell number change is -30.7%. Further, the AC50 under setting [1] was 0.411 µM [falling, full curve]. As to `CCC(=O)Nc1ccc(NC(=O)CSc2nnnn2-c2cccnc2)cc1C`, the cell number change is -3.44%. In addition, the AC50 under setting [1] was 4.11 µM [rising, full curve, poor fit].

In the case of `CCCCn1c(N)c(N(CCOC)C(=O)c2sc3cc(F)ccc3c2Cl)c(=O)[nH]c1=O`, the cell number change is 19.3%. As for `C=CCN(C(=O)c1csnn1)C(C(=O)NC1CCCCC1)c1ccc(C)cc1` (stereo not drawn), the cell number change is 24.3%. Also, the AC50 under setting [1] is 0.58 µM [rising, single point].

One may read the AC50 as the concentration at which the activity in the assay is half-maximal. A higher AC50 goes with weaker potency.
